Chains of the proteins cited; added tags and fusions are not shown.
UniProt Q0JBA9, entry or part of it: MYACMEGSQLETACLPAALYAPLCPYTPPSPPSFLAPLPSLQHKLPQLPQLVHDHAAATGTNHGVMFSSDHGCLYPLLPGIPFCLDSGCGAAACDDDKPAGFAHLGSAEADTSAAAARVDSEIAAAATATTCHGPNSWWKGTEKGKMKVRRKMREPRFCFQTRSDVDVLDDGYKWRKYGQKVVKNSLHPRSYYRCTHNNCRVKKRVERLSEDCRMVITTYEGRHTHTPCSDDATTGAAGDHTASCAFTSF

This is one part of the list.
Each sequence was assayed against OsWRKY34 (Oryza sativa, UniProt Q0JBA9 1-250) (assay: protein-binding microarray (RPBM); PBS, 2% BSA, 51.3 ng/ul salmon testes DNA, 50 uM zinc acetate, 200 nM TF, 25 C, 1 h; high values mean tight binding). Settings: protein: recombinant; tags: N-terminal polyhistidine and DsRed monomer fusion (pET32a); label: CyDye5-dUTP incorporated in the synthesized complementary strand; 3' TTTTT single-stranded linker to array surface; dsDNA, one strand shown.
How it was run: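 Transcription factors were made in E. coli BL21-CodonPlus as N-terminal fusions to a polyhistidine tag and DsRed, then purified on Ni–NTA. After primer extension with Cy5-dUTP and blocking with 2% BSA, a custom Agilent array was exposed for 1 h at 25 °C to 200 nM protein in PBS, 2% BSA, salmon testes DNA and 50 µM zinc acetate. Washed arrays were scanned on an Axon 4000B, and the binding signal is per-feature fluorescence intensity in arbitrary units.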
With “TCGTACATACTTGCGTTTCTGCTTTCGACTTGTCGCCTCACGGAGTCACCTAGTGCAG” the binding signal was 8540 fluorescence intensity (a.u.).
In the case of “CTTGCATTGATGTCGTTTGACCCTATTGACCTCACTGGAGCGGAGTCACCTAGTGCAG”, the binding signal is reported as 9880 fluorescence intensity (a.u.).
In the case of “GCCTCGCACAGTCGCGTTCCACGAATGCTCACGCGCGCGCCGGAGTCACCTAGTGCAG”, the binding signal is reported as 8820 fluorescence intensity (a.u.).
With “TCTAGTTACTACTTATCACATTCATCTCTTTTCATTCAAACGGAGTCACCTAGTGCAG” the binding signal was 10000 fluorescence intensity (a.u.).
For “ATGAAACTCTTTCCTTCTCTCTCATCCCCATTTCATGCAACGGAGTCACCTAGTGCAG”, the binding signal was 9740 fluorescence intensity (a.u.).
In the case of “TTGCACATCCACGCACTTTGGCCGCTTCTCCTCTACTACTCGGAGTCACCTAGTGCAG”, the binding signal is reported as 11200 fluorescence intensity (a.u.).
For “GGCATACTACACCTACTCTATACAATTAAATGGTACTGTGCGGAGTCACCTAGTGCAG”, the binding signal was 8230 fluorescence intensity (a.u.).
For “CCACCCTCTCGATCCCCTGTGTGCCGCCACTGACCACCGACGGAGTCACCTAGTGCAG”, the binding signal was 8180 fluorescence intensity (a.u.).
“AGGTGGTTGGTGAGGTTTGCTTTGCACGATCGAGTGAGGACGGAGTCACCTAGTGCAG” was tested, and the binding signal was 10500 fluorescence intensity (a.u.).
For “CCACCTCGATCTGTGCCGCCGTTGTTAGGGGCAGGGGCGGCGGAGTCACCTAGTGCAG”, the binding signal was 10100 fluorescence intensity (a.u.).
In the case of “TGGTGTAGTGTGCCAATATTCTTTGCGACCTCCCAGTCAACGGAGTCACCTAGTGCAG”, the binding signal is reported as 9290 fluorescence intensity (a.u.).
“GCCCTATTCCATCGCTCAGTTGGCTCACCCTCTTCGACGACGGAGTCACCTAGTGCAG” was tested, and the binding signal was 8450 fluorescence intensity (a.u.).
For “GATAGAGTTGGGTAGTGGTGGTCAGATCTTATTCGTATATCGGAGTCACCTAGTGCAG”, the binding signal was 8040 fluorescence intensity (a.u.).
“TTGGTACTGGTGATACTCGCCATTTTTTCTGTATTCCATGCGGAGTCACCTAGTGCAG” was tested, and the binding signal was 11900 fluorescence intensity (a.u.).
With “CACCACGTCCCATCCCGTCGCGTCGCCGCACATTCACCCCCGGAGTCACCTAGTGCAG” the binding signal was 9490 fluorescence intensity (a.u.).
For “GAGCTTTTCATCCAGCCCTAGTCATGCCGCACTCCACAACCGGAGTCACCTAGTGCAG”, the binding signal was 8320 fluorescence intensity (a.u.).
“CAGTTTTTGCTTGCAACGTTTGACCACTCGTCTTATTTAACGGAGTCACCTAGTGCAG” was tested, and the binding signal was 8910 fluorescence intensity (a.u.).
With “GCAAGAGAGAGATGACCGCCGCCGCCCGCCGTACTTTACACGGAGTCACCTAGTGCAG” the binding signal was 8170 fluorescence intensity (a.u.).
With “CGCCGACCGGTACACCGCCCATGTGCCACAGCCCGCCCGCCGGAGTCACCTAGTGCAG” the binding signal was 8510 fluorescence intensity (a.u.).
In the case of “CTCTCTTCTTCTTCCTCGCTTTGCTTGGGTTGGGTTGGAGCGGAGTCACCTAGTGCAG”, the binding signal is reported as 14800 fluorescence intensity (a.u.).
With “CATACTGGCCAAGATATGGTTTGGTTTGTTTATTTGATGTCGGAGTCACCTAGTGCAG” the binding signal was 8690 fluorescence intensity (a.u.).
“AGCTCGCTCGCTCTGGAAAGCATGCTTATGTCCATCACTACGGAGTCACCTAGTGCAG” was tested, and the binding signal was 8100 fluorescence intensity (a.u.).
In the case of “GTGTGAATTGTGGGTGTCATCCAATGGGTGGAGGGGTTGCCGGAGTCACCTAGTGCAG”, the binding signal is reported as 11400 fluorescence intensity (a.u.).
“CCACCAGAGTCCACGAGTCATGACCACACATTGCATCCGTCGGAGTCACCTAGTGCAG” was tested, and the binding signal was 9990 fluorescence intensity (a.u.).
“TGGCTAGAGTTAGACTCTCTGTTTGGATTGATTATTGGGACGGAGTCACCTAGTGCAG” was tested, and the binding signal was 8160 fluorescence intensity (a.u.).
In the case of “ATCGATCCCTTGCCTTGCTCACGTACCGAGCTGCTTCAAGCGGAGTCACCTAGTGCAG”, the binding signal is reported as 8530 fluorescence intensity (a.u.).
“TCTCCTGGCCCAGCTCATACTTATTCTTTTCACAGGTTAGCGGAGTCACCTAGTGCAG” was tested, and the binding signal was 8820 fluorescence intensity (a.u.).
In the case of “ACTTTATGTACTTCTAATATAATTATTTTCTACTTTTACACGGAGTCACCTAGTGCAG”, the binding signal is reported as 8500 fluorescence intensity (a.u.).
With “TCTTTGTTAATTGTTACTGATTCATTTTGTTCCGTCCACACGGAGTCACCTAGTGCAG” the binding signal was 10800 fluorescence intensity (a.u.).
“TCAATCACTCTACCCATCGTCTTACTCCCTCTGTTTCAACCGGAGTCACCTAGTGCAG” was tested, and the binding signal was 9680 fluorescence intensity (a.u.).
“ATAGATTGTGGGGCCCAGATGTTGGTGGTAGACGTGGTTTCGGAGTCACCTAGTGCAG” was tested, and the binding signal was 8280 fluorescence intensity (a.u.).
In the case of “ATTGTGTAATACACACGAGTATTTACTAATCAAGAGGACCCGGAGTCACCTAGTGCAG”, the binding signal is reported as 8260 fluorescence intensity (a.u.).
With “TTCTCCCCGACCTCCGCCATCCCCACACCCCACTGCTCCGCGGAGTCACCTAGTGCAG” the binding signal was 8100 fluorescence intensity (a.u.).
For “TTGCTTTTGTGTTCGGTTTTTCTATTTTTTCTATTTTCTTCGGAGTCACCTAGTGCAG”, the binding signal was 13700 fluorescence intensity (a.u.).
In the case of “TATTTTGGTTCAGGTAATTAGAAGTGTTGGTCAATGGTCACGGAGTCACCTAGTGCAG”, the binding signal is reported as 8380 fluorescence intensity (a.u.).
For “CCGCCGCCTTTCCCGTCTCTCTCTCTACCTACACACTTTTCGGAGTCACCTAGTGCAG”, the binding signal was 9630 fluorescence intensity (a.u.).
For “TGCTGTTCGTCGCGCTCTAATATAATCTGCCAATGGATTTCGGAGTCACCTAGTGCAG”, the binding signal was 9830 fluorescence intensity (a.u.).
For “GCAAAGCTTTGATTCTCCTACTGATACATTGTTACCCACTCGGAGTCACCTAGTGCAG”, the binding signal was 9140 fluorescence intensity (a.u.).
In the case of “GCCGTCGCCCCTCCTCCTGCTCCGGCCGCGCGCCGCTTGCCGGAGTCACCTAGTGCAG”, the binding signal is reported as 8920 fluorescence intensity (a.u.).
For “GATATCTTGCGCGCCTCGTTGCATATTTCCAAAAAGGACACGGAGTCACCTAGTGCAG”, the binding signal was 8170 fluorescence intensity (a.u.).
For “TCTGCACTTATGCTATACGCTGCTTCTCTCCCGAAACCATCGGAGTCACCTAGTGCAG”, the binding signal was 8140 fluorescence intensity (a.u.).
In the case of “GCTGGAGCGCCGCCGCAGCCCGCAGGTCGATGGGGAGGGGCGGAGTCACCTAGTGCAG”, the binding signal is reported as 8100 fluorescence intensity (a.u.).
For “CACAGTTGCAGTCTCCATGGGGCTACCTCACTTTAATTACCGGAGTCACCTAGTGCAG”, the binding signal was 10100 fluorescence intensity (a.u.).
With “TATTTCATTATTTATTCACTTGCCACATTATTTTTCATTTCGGAGTCACCTAGTGCAG” the binding signal was 9900 fluorescence intensity (a.u.).
In the case of “TCGCTGATCTTCTCTCACTCACTCCGTCTCCCACAACCACCGGAGTCACCTAGTGCAG”, the binding signal is reported as 8040 fluorescence intensity (a.u.).
“TATAGTGTGAATTGTGTGAATCCCTGATTTGCTTGTTTGCCGGAGTCACCTAGTGCAG” was tested, and the binding signal was 8900 fluorescence intensity (a.u.).
“TCTATGAAGACAGACGGGTGCTGTGTTGTTTTCTCTCTTTCGGAGTCACCTAGTGCAG” was tested, and the binding signal was 8110 fluorescence intensity (a.u.).
“TCAACTCGAGGCTCCCAACCTTCGCTTCTTCGTTTCTCGCCGGAGTCACCTAGTGCAG” was tested, and the binding signal was 10600 fluorescence intensity (a.u.).
In the case of “TATTTGCAGTAACTCTTTTGTGGATTTGTTTCCGTTCTGCCGGAGTCACCTAGTGCAG”, the binding signal is reported as 8780 fluorescence intensity (a.u.).
For “CCTTTGTTTTCACTGGTGTACTAGGCTGGCCCATTCGCGGCGGAGTCACCTAGTGCAG”, the binding signal was 8080 fluorescence intensity (a.u.).
For “CCTGTGCTCTTCTGCTGGACTCCTCGTCCTGCCATGTAGCCGGAGTCACCTAGTGCAG”, the binding signal was 9750 fluorescence intensity (a.u.).
For “CTTGGCCCTTGTTGCACCTGCCCAATTGCACCAATCGTCTCGGAGTCACCTAGTGCAG”, the binding signal was 8900 fluorescence intensity (a.u.).
In the case of “ACCATTTAAATTAATTATGTCTACCTACCTACTACATTATCGGAGTCACCTAGTGCAG”, the binding signal is reported as 10200 fluorescence intensity (a.u.).
“CGATCCCTAACATTGAGGAACGAGTCTCACGCATTCTCTCCGGAGTCACCTAGTGCAG” was tested, and the binding signal was 8100 fluorescence intensity (a.u.).
